Data on one molecule can be found in PMC5133968.

The chains behind the UniProt entries cited, without tags or fusion partners.
UniProt Q16513: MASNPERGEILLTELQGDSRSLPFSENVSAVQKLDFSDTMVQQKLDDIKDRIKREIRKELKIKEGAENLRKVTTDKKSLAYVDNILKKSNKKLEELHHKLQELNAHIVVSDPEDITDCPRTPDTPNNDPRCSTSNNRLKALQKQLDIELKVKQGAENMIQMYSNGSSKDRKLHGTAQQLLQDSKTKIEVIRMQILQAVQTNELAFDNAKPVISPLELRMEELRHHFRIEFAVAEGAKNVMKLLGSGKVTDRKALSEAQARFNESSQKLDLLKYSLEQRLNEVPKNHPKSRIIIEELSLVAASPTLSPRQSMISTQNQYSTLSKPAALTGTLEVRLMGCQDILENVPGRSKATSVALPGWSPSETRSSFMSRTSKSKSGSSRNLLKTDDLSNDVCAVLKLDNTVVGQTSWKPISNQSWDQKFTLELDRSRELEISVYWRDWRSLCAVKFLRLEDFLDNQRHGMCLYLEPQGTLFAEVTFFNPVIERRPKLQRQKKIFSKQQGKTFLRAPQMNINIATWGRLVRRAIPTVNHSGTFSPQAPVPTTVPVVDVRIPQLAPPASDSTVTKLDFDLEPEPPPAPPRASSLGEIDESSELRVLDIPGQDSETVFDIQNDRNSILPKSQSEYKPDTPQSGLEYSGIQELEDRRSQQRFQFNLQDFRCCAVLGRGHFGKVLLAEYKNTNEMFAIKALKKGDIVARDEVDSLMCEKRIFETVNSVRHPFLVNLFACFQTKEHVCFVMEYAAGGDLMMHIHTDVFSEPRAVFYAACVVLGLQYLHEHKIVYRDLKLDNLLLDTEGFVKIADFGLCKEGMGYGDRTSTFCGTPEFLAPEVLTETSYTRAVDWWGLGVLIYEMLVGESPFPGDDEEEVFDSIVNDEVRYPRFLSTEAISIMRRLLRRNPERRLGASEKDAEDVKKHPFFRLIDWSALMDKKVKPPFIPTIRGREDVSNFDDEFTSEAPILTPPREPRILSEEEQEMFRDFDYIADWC

These are yes or no findings as the source states them, for the method shown. Binding seen in cells or lysates may run through a third protein.

The target of the assay is PKN2 (protein kinase C-related kinase 2), expression vector with no tag named (human) (UniProt Q16513). Nature of the assay: co-IP; 293T cells transiently co-transfected; lysates immunoprecipitated with PKN2 antibodies, blotted for Cdo (Figure 2e) or HA (Figure 5b).

B1: CdoΔ1160-1256 (receptor, UniProt O35158)
chain: DLATYFISEPLSAVQKLGRPVVLHCSAKPVTARISWLHNGKRLDRNTEQIKIHRGTLTILSLNPSLSGCYQCVANNSVGAVVSGPATVSADALADFDSSTMHVITAEKKNTGFIGCRVPESNPKAEVRYKIRGKWLMYSTGNYIILPSGNLQILNVSSKDKGSYKCAAYNPVTSELKVEPAGRKLLVSRPSSDGFHILHPALSQALAVLPHSPVTLECVVSGVPASQVYWLKDGQDCLSGSNWRRLYSHLATASIDPADSGNYSCVVGNNSSGDVKHVTYTVNVLEHASISKGLHDQKVSLGATVRFTCEVHGNPAPNRTWFHNAQPIRPSSRHLTEGSVLKITGVIMEDSGLYQCMADNGIGFMQSTGRLQIEQDSGQRPVIVTAPANVEVTDGDFVTLSCNATGEPVPVIHWYGRHGLITSHPSQVLRSKSRKSHLFRPGDLDPEPVYLIMSQAGSSSLSIQAVTREHAGKYTCEAVNKHGSTQSEAFLTVVPFETNTKAEPVTPSEASQNDERDPRDGSESGLLNLFPVKVHSGGVELPAEKNASVPDAPNILSPPQTHMPDTYTLVWRTGRDGGMPINAYFVKYRKLDDGSGAVGSWHTVRVPGSESELHLTELEPSSLYEVLMVARSAVGEGQPAMLTFRTSKEKMASSKNTQASFPPVGIPKRPVTSEASNSNFGVVLTDSSRHSGVPEAPDRPTISMASETSVYVTWIPRANGGSPITAFKVEYKRMKSSDWLVAAEDIPPSKLSVEVRSLEPGSIYKFRVIVINHYGESFRSSASRPYQVAGFPNRFSNRPITGPHIAYTEAVSDTQIMLKWTYIPSSNNNTPIQGFYIYYRPTDSDNDSDYKRDVVEGSKQWHTIGHLQPETSYDIKMQCFNEGGESEFSNVMICETKVKRVPGASEYPMKELSTPPSSSGNGGNVGPATSPARSSDMLYLIVGCVLGVMVLILLVFIALCLWKSRQQSAIQKYDPPGYLYQGSEINGQMVEYTTLSGTARINGSVHGGFLSKGSLSNGCSHLHHKGPNGVNGILNGTINGGLYSAHTSSLTRTCVEFEHPHHLVNGGAVYTAVPQMDPLECINCRNCRNNNRCFTKTNSPLPVVPVVASYPQDGLEMKPLGVMKFPVCPVSTVPD
Consider B1, for which the binding result is given as “no binding”.
